Measured values: article PMC10741602
These are yes or no findings as the source states them, for the method shown. Some binding calls cover weakened binding; strength is not graded here.

Amino acid sequences for entries named in this document (tags omitted).
UniProt P10275: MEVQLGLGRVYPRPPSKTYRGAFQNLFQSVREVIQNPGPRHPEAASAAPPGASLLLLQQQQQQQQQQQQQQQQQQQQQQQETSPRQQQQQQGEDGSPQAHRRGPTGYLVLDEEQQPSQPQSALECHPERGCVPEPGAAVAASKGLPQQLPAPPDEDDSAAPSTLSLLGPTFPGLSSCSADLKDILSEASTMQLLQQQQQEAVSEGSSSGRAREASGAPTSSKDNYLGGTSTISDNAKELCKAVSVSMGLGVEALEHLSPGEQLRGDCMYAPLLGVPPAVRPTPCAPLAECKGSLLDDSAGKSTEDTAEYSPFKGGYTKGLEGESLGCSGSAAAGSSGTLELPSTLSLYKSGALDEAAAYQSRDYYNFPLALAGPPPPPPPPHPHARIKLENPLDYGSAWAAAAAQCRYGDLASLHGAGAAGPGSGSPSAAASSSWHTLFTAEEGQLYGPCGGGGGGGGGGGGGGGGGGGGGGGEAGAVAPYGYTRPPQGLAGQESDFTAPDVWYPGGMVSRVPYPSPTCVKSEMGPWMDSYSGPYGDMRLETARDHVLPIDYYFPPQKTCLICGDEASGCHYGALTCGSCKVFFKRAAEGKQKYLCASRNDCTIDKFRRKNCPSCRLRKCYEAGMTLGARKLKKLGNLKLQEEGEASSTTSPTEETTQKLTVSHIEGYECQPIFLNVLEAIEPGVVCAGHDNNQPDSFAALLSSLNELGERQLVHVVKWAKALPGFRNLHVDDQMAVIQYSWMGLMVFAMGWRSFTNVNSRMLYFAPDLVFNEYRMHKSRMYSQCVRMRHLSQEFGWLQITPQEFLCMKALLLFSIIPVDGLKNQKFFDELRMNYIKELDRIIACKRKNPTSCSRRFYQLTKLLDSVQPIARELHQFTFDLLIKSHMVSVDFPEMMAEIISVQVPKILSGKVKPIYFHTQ
UniProt P05412: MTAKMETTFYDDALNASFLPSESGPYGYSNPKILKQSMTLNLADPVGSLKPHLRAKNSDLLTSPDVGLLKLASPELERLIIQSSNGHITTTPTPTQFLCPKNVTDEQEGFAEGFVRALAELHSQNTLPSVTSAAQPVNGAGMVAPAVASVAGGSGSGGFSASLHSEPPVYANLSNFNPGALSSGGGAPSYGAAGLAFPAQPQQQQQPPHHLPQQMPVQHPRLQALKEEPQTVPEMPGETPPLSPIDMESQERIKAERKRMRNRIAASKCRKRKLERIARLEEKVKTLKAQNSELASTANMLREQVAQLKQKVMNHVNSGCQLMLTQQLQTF

Biological target: androgen receptor (human (endogenous in KYSE410)) (UniProt P10275)
Experiment: Re-ChIP (sequential chromatin immunoprecipitation); KYSE410 cells crosslinked with 1% formaldehyde, chromatin sonicated; first immunoprecipitated chromatin complexes eluted with 10 mM dithiothreitol at 37 °C for 30 min, diluted 50-fold, then second immunoprecipitation; qPCR of the regulatory region of the UGT2B15 locus

binding: binds
Substance: Jun proto-oncogene (from UniProt P05412 1-331)
